Library screen at single concentrations

The chains behind the UniProt entries cited, without tags or fusion partners. Residues count along the entry.
UniProt I6X8D2, whole entry: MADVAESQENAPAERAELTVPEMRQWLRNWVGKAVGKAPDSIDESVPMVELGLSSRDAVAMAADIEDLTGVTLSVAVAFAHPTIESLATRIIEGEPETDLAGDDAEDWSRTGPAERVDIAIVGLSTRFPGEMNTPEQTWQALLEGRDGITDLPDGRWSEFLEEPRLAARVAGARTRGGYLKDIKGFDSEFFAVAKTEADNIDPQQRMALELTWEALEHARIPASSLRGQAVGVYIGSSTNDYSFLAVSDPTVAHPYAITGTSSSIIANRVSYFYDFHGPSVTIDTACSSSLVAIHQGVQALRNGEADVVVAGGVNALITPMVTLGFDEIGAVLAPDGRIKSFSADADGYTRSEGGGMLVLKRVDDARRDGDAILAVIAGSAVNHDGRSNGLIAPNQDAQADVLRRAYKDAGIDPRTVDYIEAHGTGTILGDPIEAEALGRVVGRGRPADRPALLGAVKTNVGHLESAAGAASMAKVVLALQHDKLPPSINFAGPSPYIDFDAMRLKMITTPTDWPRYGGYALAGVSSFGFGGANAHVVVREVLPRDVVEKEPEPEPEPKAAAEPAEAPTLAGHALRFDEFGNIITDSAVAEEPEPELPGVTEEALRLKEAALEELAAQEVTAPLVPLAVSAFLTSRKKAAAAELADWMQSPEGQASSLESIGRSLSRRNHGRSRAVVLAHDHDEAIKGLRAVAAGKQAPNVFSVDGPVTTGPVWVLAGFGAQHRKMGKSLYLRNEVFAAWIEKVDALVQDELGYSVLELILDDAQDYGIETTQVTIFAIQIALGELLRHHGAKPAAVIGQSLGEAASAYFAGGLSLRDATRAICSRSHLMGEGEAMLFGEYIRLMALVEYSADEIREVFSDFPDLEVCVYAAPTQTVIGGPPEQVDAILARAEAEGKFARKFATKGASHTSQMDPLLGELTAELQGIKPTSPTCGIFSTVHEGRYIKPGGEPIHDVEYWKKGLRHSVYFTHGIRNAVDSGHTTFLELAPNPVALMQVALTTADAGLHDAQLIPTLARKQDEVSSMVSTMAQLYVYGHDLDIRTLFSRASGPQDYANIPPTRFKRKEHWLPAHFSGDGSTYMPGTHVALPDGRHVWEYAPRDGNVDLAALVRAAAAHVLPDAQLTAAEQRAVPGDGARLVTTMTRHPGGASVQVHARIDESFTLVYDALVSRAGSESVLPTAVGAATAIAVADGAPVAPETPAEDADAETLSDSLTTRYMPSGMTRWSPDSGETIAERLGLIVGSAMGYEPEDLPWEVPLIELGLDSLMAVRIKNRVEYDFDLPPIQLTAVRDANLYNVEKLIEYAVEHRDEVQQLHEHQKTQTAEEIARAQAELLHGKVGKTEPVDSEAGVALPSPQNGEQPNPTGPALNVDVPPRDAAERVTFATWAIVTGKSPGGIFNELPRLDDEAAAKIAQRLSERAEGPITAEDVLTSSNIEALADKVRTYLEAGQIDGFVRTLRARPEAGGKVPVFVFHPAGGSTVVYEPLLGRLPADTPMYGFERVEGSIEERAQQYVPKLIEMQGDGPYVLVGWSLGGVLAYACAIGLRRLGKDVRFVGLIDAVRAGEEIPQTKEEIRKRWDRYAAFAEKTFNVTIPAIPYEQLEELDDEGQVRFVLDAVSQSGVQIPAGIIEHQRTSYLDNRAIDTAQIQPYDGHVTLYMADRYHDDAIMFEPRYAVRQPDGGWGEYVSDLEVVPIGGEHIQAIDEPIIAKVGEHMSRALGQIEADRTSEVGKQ
UniProt Q4DA54, 1-478: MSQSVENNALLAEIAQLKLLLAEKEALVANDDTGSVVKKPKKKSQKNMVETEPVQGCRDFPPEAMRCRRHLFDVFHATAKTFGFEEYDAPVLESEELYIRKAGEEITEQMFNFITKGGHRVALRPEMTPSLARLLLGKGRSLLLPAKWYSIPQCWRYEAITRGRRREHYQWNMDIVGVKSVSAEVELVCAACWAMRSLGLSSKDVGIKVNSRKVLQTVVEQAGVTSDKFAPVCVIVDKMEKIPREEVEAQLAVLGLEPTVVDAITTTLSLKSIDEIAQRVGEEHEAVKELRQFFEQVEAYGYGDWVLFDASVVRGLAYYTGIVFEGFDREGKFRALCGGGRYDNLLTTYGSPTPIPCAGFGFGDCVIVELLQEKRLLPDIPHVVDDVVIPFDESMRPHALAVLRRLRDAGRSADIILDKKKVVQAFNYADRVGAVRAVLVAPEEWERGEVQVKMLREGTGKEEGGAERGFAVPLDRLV
UniProt A4I591, 1-473: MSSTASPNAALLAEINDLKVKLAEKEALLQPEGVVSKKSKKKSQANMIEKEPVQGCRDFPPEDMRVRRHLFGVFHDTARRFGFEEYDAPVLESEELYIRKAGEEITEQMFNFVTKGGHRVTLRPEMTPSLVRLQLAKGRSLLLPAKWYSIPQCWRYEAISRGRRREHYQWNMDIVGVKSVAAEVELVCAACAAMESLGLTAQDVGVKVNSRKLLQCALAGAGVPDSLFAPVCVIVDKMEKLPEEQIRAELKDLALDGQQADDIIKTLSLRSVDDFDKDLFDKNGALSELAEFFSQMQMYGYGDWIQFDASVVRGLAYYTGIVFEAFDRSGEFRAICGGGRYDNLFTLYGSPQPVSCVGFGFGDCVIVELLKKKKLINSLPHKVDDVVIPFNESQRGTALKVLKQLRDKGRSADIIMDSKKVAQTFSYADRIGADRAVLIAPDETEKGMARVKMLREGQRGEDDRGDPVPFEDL

Pks13 thioesterase: 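Enzyme assay of the thioesterase domain of polyketide synthase 13; the read-out is not stated. Target: Polyketide synthase Pks13, Mycobacterium tuberculosis (UniProt I6X8D2). Concentration: 30 µM. Higher reads as stronger inhibition (inferred from which compounds were picked for retests). Of about 67,000 compounds tested this way, about 300 (0.46%) reached 50% or more in at least one test.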
TcHisRS: 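Enzyme assay of histidyl-tRNA synthetase; the read-out is not stated. Target: Histidine-tRNA ligase, Trypanosoma cruzi CL Brener (UniProt Q4DA54). Compounds at 30 µM. Direction is inferred from retests: higher values go with stronger inhibition. About 69,000 compounds were tested under these conditions; 0.045% (about 31) showed 50% or more at least once.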
LiHisRS: 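Histidine-tRNA ligase, Leishmania infantum (UniProt A4I591). Enzyme assay of histidyl-tRNA synthetase; the read-out is not stated. Compounds at 30 µM. The record gives no direction; compounds that gave an IC50 in retests scored well above the rest, so higher reads as stronger inhibition. The assay is labelled LdHisRS but filed under L. infantum. Size under these conditions: about 69,000 compounds, about 410 of them at 50% or above in at least one test.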

Values are the deposited “Percent Effect”, in %.
The record does not define 0% and 100%; most values in the screen are far below 50% and negative numbers occur (in some assays of this library far below -100).
Compounds were drawn at random from those tested, without regard to their results.
A dash means the value is not listed here; it may have been measured.

structure	Pks13 thioesterase	TcHisRS	LiHisRS
CCN(CC)c1ccc(NS(=O)(=O)c2cnn(CC)c2)cn1	-14.63	6.122	17.74
CCNC(=O)[C@@H]1C[C@H](N)CN1Cc1ccc(-c2cc[nH]n2)o1	20.14	7.303	30.77
Cc1cc(C)cc(NC(=O)CC2CN(Cc3ccccc3)CCO2)c1 (centres unmarked)	-5.078	3.139	20
Cc1ccc(C2NC(=O)c3cc(C(C)C)sc3N2)cc1 (centres unmarked)	-15.3	3.96	7.143
CC(C)c1nn(C)c(N(C)C)c1CNC1CCc2cc(F)ccc21 (centres unmarked)	-	4.386	5.357
O=C(CN1CCCC1Cn1cccn1)NCCOc1cccc(F)c1 (centres unmarked)	-8.636	6.936	9.821
Cc1ncsc1CN1CC[C@H]2C[C@H](c3ccncn3)O[C@@H]2C1	-12.12	3.261	10.68
Cc1cccc2cc(CN3CCCN4CCC[C@H]4C3)c(=O)[nH]c12	-12.26	-15.46	17.5
CCc1ccc(C(=O)N2CCCC3(CCCC(=O)N3C)C2)cc1 (centres unmarked)	-14.45	10.1	33.94
CCNC(=O)N1CCC(OC)c2ccccc2N(CC(=O)NC)C(=O)C1 (centres unmarked)	10.51	5.618	10.2
N#Cc1ccccc1OCCN1CCCC1Cn1cccn1 (centres unmarked)	-14.73	-0.7519	11.9
CCOCC(=O)N1C[C@@H](O)[C@H](N2CCN(c3ccccc3)CC2)C1	21.56	8.333	7.042
OCCNc1nc(NCCc2ccccc2)nc2nccnc12	5.357	1.031	1.099
CCOc1ccc(CNC(=O)N(C)Cc2ncnn2C)cc1C	2.704	4.598	11.29
O=C(CSc1ccc2c(c1)OCCO2)NS(=O)(=O)c1ccccc1Br	-20.16	1.058	12.12
O=C(c1ccc2nccnc2c1)N1CCN(CCO)[C@@H]2CS(=O)(=O)C[C@@H]21	-3.562	11.76	3.968
O=C(CCc1ccc(=O)[nH]n1)N1CCCC(COc2ccc(F)cc2)C1 (centres unmarked)	-13.68	3.252	27.88
Cc1nn(C)c(C)c1NC(=O)CNC(c1ccccc1)C1CCCC1 (centres unmarked)	3.611	7.937	0
CSc1ccccc1CN1C[C@H]2CC[C@@H]1CN(Cc1[nH]cnc1C)C2	-18.04	9.662	20.83
CC(O)CNC(=O)Nc1ccc(Br)cc1Br (centres unmarked)	-7.205	5.319	24.29
COc1ccc(CNC(=O)N2CCN(CC(O)C3CC3)CC2)cc1 (centres unmarked)	-6.21	10	9.589
N#CCSCCCN1CCN(C(=O)c2ccc(Cl)cc2)CC1	5.79	8.264	-1.905
COC(=O)Nc1ccc(CNc2cncc(-n3cccn3)n2)cc1	25.14	5.714	7.692
O=C(NC1CCCC1)C1Cc2nc(-c3ccsc3)sc2N1CC1CC1 (centres unmarked)	-6.958	2.857	23.61
CNC(=O)NC(=O)COc1c(C(C)=O)ccc(Cl)c1Cl	-0.6862	3.448	20.18
Cc1cnn(CC2CCCCN2Cc2cc(C)no2)c1 (centres unmarked)	-8.494	2.353	7.339
Cc1cnc(C(=O)N(C)Cc2nc(-c3ccccn3)no2)cn1	-25.08	-2.186	17.54
COc1ccc(CNC(=O)Nc2cccnc2N2CCCC2)cc1O	0.294	-0.7519	19.05
COc1ccc(C2CCCN2C(=O)c2cc3c([nH]c2=O)CCC3)cc1 (centres unmarked)	57.88	-1.604	23.08
COc1cccc(C(=O)N2C[C@@H](C(=O)O)[C@H](c3ccccc3C)C2)c1	8.669	6.977	-1.639
Cc1cc(=O)n2nc(Oc3ccc(C#N)cc3Cl)sc2n1	-6.649	6.468	15.66
CS(=O)(=O)N1CCN(c2ccnc(N3CCCCC3)n2)CC1	-33.02	4.95	12.33
O=C1NCC[C@]12CN(Cc1nccs1)C[C@H]2c1ccccc1	4.326	8.046	2.632
Cc1cccc(OCCC(=O)N2CCCN(CC(N)=O)CC2)c1C	-29.76	2.256	-19.1
Clc1ccc(-n2nnnc2C2(NCc3ccco3)CCCCC2)cc1	24.96	6.931	16.67
Cc1cc(-n2nc(C)nc2-c2cn(CCN)nn2)ccn1	-1.043	0.9804	9.6
CCOCc1nn(C)c2c1CN(CCO)CC2	-3.201	0	-0.9009
CN(C)c1cc(CNCc2ccc(N3CCOCC3)cc2)ccn1	-20.5	9.392	10.42
CS(=O)(=O)c1nccn1CCOc1ccccc1F	-3.962	4.762	-10.96
CNC(=O)c1nnn(-c2ccccc2F)c1-c1ccccn1	-45.96	2.062	17.39
CCS(=O)(=O)NCCCNC(=O)N(C)C(C)c1ccccn1 (centres unmarked)	-30.26	-2.89	1.333
CSc1ccc(NC(=O)Cn2cc(NC(C)=O)cn2)cc1	-26.9	0.8929	14.16
Cc1cc(NC(=O)CSc2nc(=O)ccn2C(C)C)no1	-10.33	2.469	4.301
CCOc1cc(/C=C/c2ncc(C(=O)O)s2)cc(Br)c1OC	17.12	0.8596	8.772
CC(C)(C)C1CCC(O)(CNC(=O)CCS(C)(=O)=O)CC1 (centres unmarked)	-26.4	2.762	12.5
O=C1NCC[C@]12CN(Cc1ccoc1)C[C@H]2c1ccccc1	-10.46	2.174	6.796
Cn1cccc(NC(=O)COc2ccc(Br)cc2)c1=O	-22.06	11.76	26.05
CCc1ccccc1-n1cc(O)c(C(=O)N2CCCCC2)n1	-9.22	0.3831	-6.154
Cc1cc(N2CCC(O)(CN(C)C(=O)CCCN)C2)c2cnccc2n1 (centres unmarked)	-	3.714	9.396
COCC(O)CN1CCC(=O)N(Cc2ccccc2)Cc2ccccc21 (centres unmarked)	4.817	6.742	16.33
CC(=O)N1CCC[C@H]1C(=O)NCCOc1cccc(Cl)c1	-19.41	-3.053	19.18
CN(C)[C@@H]1CN(C(=O)Cc2ccc(F)cc2)[C@@H]2CCCO[C@H]12	-44.17	-1.105	-6.306
Cc1ccc(NC(=O)N2CCOC(C(N)=O)C2)cc1C(F)(F)F (centres unmarked)	-2.78	7.035	11.7
O=C(NC[C@]12COC[C@H]1CN(Cc1ccncc1)C2)c1ccco1	-16.84	-74.86	18.25
CC(C)NC(=O)Nc1ccc(-c2nc(C(C)C)no2)cc1	-35.35	7.182	12.05
CCC(C)NC(=O)c1ccc(NC(=O)CCCn2cncn2)c(C)c1 (centres unmarked)	-5.871	6.173	12.9
CCc1nnc2n1CCN(CC(O)c1ccc3c(c1)OCCO3)C2 (centres unmarked)	-23.72	7.289	11.01
CCn1c(CN2CCCC2)nnc1C1CCN(Cc2cccnc2)CC1	-18.89	-0.5025	0.8
O=C(O)C1(n2cccn2)CCN(c2nc(-c3ccccc3)no2)CC1	-28.72	2.041	5.714
O=C1[C@H]2CN(S(=O)(=O)c3cccs3)C[C@H]2CN1CC1CC1	-29.71	4.854	21.36
CC(C)c1nsc(NC2CC(=O)N(C(C)(C)C)C2)n1 (centres unmarked)	-14.28	5.844	12.9
COCc1ccc(OC)c(CNC2CCCNC2=O)c1 (centres unmarked)	-4.631	1.538	9.859
Cc1nc(COC[C@@H]2CC[C@H]3NCC[C@H]3O2)cs1	25.14	8.589	-6.838

Source: ChEMBL document CHEMBL3988442, “University of Dundee, Small-Polar-MMV Screening Library” (2021).